In the supplement of paper PMC7666118:
The other results are listed elsewhere or left out.

Amino acid sequences for entries named in this document (tags omitted). A change or cut given only in a name is not applied to a line headed by its entry.
UniProt P51151: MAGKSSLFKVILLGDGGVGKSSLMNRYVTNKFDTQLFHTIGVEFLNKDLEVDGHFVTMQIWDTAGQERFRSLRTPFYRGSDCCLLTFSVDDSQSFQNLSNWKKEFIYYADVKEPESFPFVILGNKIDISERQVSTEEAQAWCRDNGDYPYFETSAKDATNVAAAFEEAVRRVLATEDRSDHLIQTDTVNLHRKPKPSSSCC
UniProt Q16401: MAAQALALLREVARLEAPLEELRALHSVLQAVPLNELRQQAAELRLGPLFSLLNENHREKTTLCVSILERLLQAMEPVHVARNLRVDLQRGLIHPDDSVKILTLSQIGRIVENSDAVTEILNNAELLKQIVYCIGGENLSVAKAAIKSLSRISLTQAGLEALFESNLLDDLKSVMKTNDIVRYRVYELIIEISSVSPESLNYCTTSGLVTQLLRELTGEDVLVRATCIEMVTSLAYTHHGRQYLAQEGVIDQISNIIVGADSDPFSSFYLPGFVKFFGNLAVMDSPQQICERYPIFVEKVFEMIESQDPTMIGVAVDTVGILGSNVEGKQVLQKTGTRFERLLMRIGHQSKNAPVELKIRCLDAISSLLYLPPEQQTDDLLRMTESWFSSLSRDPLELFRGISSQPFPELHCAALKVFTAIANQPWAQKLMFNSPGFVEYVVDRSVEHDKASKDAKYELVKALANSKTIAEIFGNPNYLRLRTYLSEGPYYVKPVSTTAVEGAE
UniProt O00232: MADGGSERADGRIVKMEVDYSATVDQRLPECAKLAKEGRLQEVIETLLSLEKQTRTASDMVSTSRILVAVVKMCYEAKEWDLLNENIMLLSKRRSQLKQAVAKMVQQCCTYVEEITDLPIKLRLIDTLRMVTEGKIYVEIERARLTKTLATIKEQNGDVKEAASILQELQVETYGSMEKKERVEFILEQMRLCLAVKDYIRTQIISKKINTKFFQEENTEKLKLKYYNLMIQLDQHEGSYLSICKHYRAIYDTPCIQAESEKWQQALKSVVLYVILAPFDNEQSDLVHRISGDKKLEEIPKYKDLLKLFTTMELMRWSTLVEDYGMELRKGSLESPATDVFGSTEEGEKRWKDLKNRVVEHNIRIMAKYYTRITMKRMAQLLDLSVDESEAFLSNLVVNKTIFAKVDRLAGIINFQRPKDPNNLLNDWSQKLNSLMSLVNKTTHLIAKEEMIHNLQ
UniProt P23470: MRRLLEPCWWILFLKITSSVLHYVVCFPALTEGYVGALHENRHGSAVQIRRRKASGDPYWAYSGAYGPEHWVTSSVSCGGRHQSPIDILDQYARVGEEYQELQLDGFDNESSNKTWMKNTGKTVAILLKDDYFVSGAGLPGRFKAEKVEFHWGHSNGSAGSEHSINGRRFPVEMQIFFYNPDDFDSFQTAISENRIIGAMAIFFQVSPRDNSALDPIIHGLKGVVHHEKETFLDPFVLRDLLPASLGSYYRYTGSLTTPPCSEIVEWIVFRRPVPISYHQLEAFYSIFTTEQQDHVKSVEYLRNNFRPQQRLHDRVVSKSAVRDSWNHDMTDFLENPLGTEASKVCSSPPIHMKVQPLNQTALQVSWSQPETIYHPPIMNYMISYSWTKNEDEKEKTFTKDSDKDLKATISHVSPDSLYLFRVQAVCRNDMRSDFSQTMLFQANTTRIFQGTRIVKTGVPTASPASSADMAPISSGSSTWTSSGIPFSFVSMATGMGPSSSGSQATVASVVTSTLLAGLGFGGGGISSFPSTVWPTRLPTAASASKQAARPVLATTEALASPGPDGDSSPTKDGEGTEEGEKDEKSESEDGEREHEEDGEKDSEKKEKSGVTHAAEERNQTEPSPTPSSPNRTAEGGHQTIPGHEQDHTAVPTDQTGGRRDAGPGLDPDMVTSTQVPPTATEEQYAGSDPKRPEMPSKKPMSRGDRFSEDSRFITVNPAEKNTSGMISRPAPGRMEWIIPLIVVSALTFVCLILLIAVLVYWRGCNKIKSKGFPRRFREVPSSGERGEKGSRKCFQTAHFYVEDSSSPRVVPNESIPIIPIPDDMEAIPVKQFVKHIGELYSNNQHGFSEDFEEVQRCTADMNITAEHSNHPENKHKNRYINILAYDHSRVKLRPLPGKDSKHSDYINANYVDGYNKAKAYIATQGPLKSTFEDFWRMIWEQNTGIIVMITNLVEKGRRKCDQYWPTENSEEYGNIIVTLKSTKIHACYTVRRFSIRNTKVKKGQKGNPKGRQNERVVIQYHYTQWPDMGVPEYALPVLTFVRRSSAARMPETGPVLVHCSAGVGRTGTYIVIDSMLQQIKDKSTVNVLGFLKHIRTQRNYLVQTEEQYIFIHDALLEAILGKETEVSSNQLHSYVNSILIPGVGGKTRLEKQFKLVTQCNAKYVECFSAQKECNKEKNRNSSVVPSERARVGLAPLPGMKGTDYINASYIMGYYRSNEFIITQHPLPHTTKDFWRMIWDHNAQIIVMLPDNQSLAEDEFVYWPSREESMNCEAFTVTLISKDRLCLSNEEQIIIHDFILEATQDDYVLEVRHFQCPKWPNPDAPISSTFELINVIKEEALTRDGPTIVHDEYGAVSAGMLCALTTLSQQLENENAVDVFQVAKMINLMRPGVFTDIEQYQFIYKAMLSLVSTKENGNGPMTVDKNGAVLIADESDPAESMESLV
UniProt P10114: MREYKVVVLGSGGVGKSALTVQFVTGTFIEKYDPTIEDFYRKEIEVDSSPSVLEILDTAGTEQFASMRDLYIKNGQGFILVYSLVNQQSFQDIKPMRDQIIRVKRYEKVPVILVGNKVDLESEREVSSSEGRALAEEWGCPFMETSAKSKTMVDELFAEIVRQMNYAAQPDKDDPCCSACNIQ
UniProt Q9H939: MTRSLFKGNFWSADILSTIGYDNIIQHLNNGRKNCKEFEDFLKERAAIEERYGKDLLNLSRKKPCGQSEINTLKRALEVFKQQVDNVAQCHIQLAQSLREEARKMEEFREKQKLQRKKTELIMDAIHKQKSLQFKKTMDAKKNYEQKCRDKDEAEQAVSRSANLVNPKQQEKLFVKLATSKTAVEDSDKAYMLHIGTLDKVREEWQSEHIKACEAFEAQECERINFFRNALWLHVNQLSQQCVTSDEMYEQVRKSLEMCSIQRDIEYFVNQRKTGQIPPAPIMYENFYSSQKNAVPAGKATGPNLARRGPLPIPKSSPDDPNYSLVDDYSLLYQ
UniProt Q14088: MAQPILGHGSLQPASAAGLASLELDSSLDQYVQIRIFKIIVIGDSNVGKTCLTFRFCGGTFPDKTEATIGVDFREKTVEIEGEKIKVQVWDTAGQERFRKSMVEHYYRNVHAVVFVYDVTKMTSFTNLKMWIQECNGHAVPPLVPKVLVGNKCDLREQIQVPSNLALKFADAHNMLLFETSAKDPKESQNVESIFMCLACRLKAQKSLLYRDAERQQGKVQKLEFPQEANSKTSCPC
UniProt Q00577: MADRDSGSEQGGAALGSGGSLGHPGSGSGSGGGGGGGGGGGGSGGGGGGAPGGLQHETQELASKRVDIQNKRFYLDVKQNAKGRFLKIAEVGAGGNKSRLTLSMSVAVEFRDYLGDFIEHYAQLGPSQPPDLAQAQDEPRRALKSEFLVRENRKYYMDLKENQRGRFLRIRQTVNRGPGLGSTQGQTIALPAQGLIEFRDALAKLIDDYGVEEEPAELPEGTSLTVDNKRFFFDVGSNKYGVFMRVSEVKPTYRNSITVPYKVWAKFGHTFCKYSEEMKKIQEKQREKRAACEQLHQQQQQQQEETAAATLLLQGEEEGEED
UniProt P28749: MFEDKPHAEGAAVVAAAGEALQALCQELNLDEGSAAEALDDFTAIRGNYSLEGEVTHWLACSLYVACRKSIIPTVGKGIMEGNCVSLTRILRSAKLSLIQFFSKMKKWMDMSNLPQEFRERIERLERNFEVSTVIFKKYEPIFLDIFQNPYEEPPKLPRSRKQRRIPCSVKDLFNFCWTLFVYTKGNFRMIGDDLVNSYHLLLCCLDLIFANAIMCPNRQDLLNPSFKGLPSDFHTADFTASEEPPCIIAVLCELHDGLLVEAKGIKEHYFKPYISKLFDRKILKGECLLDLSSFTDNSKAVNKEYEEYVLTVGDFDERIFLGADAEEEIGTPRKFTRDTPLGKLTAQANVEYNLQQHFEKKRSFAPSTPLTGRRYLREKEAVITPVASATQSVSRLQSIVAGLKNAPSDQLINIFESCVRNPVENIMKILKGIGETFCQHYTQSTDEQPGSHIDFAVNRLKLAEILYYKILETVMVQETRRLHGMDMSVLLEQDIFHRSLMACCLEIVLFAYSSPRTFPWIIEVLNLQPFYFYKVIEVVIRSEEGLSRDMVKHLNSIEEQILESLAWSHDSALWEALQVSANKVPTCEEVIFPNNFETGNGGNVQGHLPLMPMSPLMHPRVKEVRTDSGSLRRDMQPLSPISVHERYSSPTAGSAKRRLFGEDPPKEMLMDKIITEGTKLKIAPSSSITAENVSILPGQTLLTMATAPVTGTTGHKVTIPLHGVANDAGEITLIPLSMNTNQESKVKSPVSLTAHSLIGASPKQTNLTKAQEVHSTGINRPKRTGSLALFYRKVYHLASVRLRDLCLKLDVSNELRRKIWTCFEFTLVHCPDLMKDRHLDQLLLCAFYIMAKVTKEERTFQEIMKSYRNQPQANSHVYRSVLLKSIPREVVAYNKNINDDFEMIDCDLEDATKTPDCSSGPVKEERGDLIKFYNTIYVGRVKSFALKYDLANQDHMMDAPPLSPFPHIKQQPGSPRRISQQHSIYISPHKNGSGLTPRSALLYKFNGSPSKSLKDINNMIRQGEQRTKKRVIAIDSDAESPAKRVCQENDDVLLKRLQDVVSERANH
UniProt Q9H2M9: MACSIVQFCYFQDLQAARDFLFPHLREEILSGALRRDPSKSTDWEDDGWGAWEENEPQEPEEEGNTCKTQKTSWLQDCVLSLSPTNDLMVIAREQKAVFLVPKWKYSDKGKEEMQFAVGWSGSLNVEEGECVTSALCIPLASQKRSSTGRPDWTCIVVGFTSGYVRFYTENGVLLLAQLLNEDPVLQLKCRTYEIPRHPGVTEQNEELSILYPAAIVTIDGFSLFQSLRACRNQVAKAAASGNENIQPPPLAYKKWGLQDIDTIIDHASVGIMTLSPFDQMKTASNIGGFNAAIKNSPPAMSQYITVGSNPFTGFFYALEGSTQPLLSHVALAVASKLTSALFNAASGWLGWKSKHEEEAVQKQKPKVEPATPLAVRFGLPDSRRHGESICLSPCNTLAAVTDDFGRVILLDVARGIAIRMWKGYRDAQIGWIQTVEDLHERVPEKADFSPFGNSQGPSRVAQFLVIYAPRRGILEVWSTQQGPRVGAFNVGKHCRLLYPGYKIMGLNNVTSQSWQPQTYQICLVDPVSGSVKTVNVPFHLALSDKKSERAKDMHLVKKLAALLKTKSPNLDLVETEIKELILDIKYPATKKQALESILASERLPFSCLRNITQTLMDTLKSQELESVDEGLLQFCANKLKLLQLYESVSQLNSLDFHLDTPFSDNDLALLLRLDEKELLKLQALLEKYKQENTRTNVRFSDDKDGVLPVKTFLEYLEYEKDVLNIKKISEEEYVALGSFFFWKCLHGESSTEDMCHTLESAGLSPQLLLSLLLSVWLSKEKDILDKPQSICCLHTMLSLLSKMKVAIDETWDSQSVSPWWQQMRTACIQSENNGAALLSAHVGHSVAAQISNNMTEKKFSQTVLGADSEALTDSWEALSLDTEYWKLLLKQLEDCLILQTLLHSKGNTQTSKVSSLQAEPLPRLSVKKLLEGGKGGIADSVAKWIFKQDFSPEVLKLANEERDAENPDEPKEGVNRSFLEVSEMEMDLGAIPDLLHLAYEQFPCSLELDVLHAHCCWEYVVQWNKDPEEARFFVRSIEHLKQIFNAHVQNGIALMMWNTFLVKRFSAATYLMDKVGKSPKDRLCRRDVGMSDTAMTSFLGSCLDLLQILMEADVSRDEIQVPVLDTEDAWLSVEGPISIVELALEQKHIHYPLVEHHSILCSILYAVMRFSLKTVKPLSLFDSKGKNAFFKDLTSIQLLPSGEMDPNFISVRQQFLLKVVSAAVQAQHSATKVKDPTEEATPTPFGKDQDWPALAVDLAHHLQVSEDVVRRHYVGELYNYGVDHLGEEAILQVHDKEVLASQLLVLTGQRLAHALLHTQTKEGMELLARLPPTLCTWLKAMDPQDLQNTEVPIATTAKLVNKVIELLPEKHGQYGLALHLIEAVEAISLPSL
UniProt Q9H0Z9: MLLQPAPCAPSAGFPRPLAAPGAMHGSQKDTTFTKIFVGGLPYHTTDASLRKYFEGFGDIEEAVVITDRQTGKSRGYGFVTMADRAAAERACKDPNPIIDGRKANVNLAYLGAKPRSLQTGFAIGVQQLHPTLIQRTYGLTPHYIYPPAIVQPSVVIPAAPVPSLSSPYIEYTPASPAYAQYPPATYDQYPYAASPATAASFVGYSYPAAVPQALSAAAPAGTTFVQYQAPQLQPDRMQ
UniProt P11234: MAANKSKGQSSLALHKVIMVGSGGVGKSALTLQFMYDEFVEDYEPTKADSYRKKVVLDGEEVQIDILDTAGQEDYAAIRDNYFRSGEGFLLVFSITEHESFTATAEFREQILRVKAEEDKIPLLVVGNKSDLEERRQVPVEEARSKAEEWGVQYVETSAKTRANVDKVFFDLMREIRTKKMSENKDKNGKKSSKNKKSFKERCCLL

These targets were tested with COc1ccc(Cn2ccc3ccc(C(=O)NO)cc32)cc1 (assay: dose-dependent thermal stabilisation call (2D-TPP, DLPTP, 10% FDR) (binary (1 = stabilised)); higher = stabilised by the compound). Conditions: system: HL-60 intact cells; concentration range 0.04-10 µM.

Target	dose-dependent thermal stabilisation call
RBM26 (UniProt Q5T8P6)	inactive: 0
PSMA6 (UniProt P60900)	inactive: 0
QARS	inactive: 0
PUS3 (UniProt Q9BZE2)	inactive: 0
RAB9A (UniProt P51151)	inactive: 0
PSMD5 (UniProt Q16401)	inactive: 0
PSMD12 (UniProt O00232)	inactive: 0
PTPRG (UniProt P23470)	inactive: 0
PSME1 (UniProt Q06323)	inactive: 0
PTPRA (UniProt P18433)	inactive: 0
RAP2A (UniProt P10114)	inactive: 0
PRRC1 (UniProt Q96M27)	inactive: 0
PTER (UniProt Q96BW5)	inactive: 0
RAB1B (UniProt Q9H0U4)	inactive: 0
RAC2 (UniProt P15153)	inactive: 0
PSME2 (UniProt Q9UL46)	inactive: 0
PSMC5 (UniProt P62195)	inactive: 0
PSTPIP2 (UniProt Q9H939)	inactive: 0
RABEP1 (UniProt Q15276)	inactive: 0

Target	dose-dependent thermal stabilisation call
RAB8B (UniProt Q92930)	inactive: 0
PUS7L (UniProt Q9H0K6)	inactive: 0
QTRTD1 (UniProt Q9H974)	inactive: 0
RAB33A (UniProt Q14088)	inactive: 0
PURA (UniProt Q00577)	inactive: 0
PUM2 (UniProt Q8TB72)	inactive: 0
PSPC1 (UniProt Q8WXF1)	inactive: 0
QKI (UniProt Q96PU8)	inactive: 0
PVRL1 (UniProt Q15223)	inactive: 0
RABEPK (UniProt Q7Z6M1)	inactive: 0
PYCR1 (UniProt P32322)	inactive: 0
RBL1 (UniProt P28749)	inactive: 0
RAD51 (UniProt Q06609)	inactive: 0
RAB3GAP2 (UniProt Q9H2M9)	inactive: 0
RBM38 (UniProt Q9H0Z9)	inactive: 0
PRPF4B	inactive: 0
RALB (UniProt P11234)	inactive: 0
RBM5 (UniProt P52756)	inactive: 0

2 entries from above, comma-delimited:
Target,dose-dependent thermal stabilisation call
PUS7L (UniProt Q9H0K6),inactive: 0
RBM38 (UniProt Q9H0Z9),inactive: 0
